Results deposited as PubChem BioAssay AID1159578 (Peter MacCallum Cancer Centre, 2015)
Shown is a random part of about 18,000 reagents. Over the whole deposit, about 1,030 (5.7%) got an active call. 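Inactive calls also include pools with fewer than 3300 nuclei, whose migration was not assessed.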 Raw values vary from plate to plate and are shown uncorrected. Entries without a mark were called inactive. Further read-outs or replicates are left out here. No sequences are given here.

- Screen: 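Genome-wide hunt for genes controlling movement of lymphatic endothelial cells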 (primary screen)
- Cells: human lymphatic endothelial cells
- Knock-down reagent: siRNA pool against human genes, 40 nM
- Duration: 48 h after transfection
- Measurement: 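Cells stained with dye and imaged after a scratch; covered wound area and nuclei counted, duplicates averaged, migration set against mock wells and turned into a robust z-score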
- Reading the numbers: migration robust z-score: higher = faster migration into the scratch; nuclei per well: higher = more cells in the well
- Call rule: 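Migration changed when robust z exceeds 2 or falls below -2 and mean nuclei number is at least 3300; otherwise not called changed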
- Meaning of the calls: active = migration changed; inactive = no migration change, or too few cells

Against CACNB4, the entry reads migration robust z-score -0.05; migration class with cell-count check migration z between -2 and 2; enough cells; nuclei per well, duplicate mean 4662.
For DBNDD1, the values are migration robust z-score 2.08 (active); migration class with cell-count check migration z above 2; enough cells; nuclei per well, duplicate mean 6468.
For COX6B1, the values are migration robust z-score -9.42; migration class with cell-count check under 3300 nuclei; migration not judged; nuclei per well, duplicate mean 1338.
MMS22L gave migration robust z-score 0.39; migration class with cell-count check migration z between -2 and 2; enough cells; nuclei per well, duplicate mean 5101.
After knock-down of CCNDBP1 the results were migration robust z-score -0.52; migration class with cell-count check migration z between -2 and 2; enough cells; nuclei per well, duplicate mean 6094.
Against KIR3DL3 the deposit lists migration robust z-score 0.73; migration class with cell-count check migration z between -2 and 2; enough cells; nuclei per well, duplicate mean 7002.
Knock-down of VRTN gave: migration robust z-score -0.98; migration class with cell-count check migration z between -2 and 2; enough cells; nuclei per well, duplicate mean 6276.
BEST2 scored migration robust z-score 0; migration class with cell-count check migration z between -2 and 2; enough cells; nuclei per well, duplicate mean 6622.
For LYPD8, the values are migration robust z-score 0.2; migration class with cell-count check migration z between -2 and 2; enough cells; nuclei per well, duplicate mean 5095.
Against NELFA the deposit lists migration robust z-score 0.2; migration class with cell-count check migration z between -2 and 2; enough cells; nuclei per well, duplicate mean 6666.
LILRB3 gave migration robust z-score -2.1 (active); migration class with cell-count check migration z below -2; enough cells; nuclei per well, duplicate mean 3721.
After knock-down of GPR15LG the results were migration robust z-score 0.34; migration class with cell-count check migration z between -2 and 2; enough cells; nuclei per well, duplicate mean 5124.

An excerpt of the results above, for reference:
LYPD8: migration robust z-score = 0.2; migration class with cell-count check = migration z between -2 and 2; enough cells; nuclei per well, duplicate mean = 5095
NELFA: migration robust z-score = 0.2; migration class with cell-count check = migration z between -2 and 2; enough cells; nuclei per well, duplicate mean = 6666
